Data published in article PMC9016078.
These are yes or no findings as the source states them, for the method shown. In cells and extracts the contact can be indirect. Some results given as binding are weak or reduced against the parent protein; the word gives no strength.

Assays:
[1] = target: T1, gamma-aminobutyric acid A receptor (GABAAR) γ2 subunit F77I (mouse (endogenous in liver)) (UniProt P22723); experiment: co-IP; liver protein extracts (500 μg) of mice on high-fat diet; IP with goat polyclonal GABAAR γ2 antibody (3 μg) or isotype IgG on protein A/G-Sepharose, overnight 4 °C, three PBS washes; immunoblot for GABAAR γ2 and ACBP
T1 sequence: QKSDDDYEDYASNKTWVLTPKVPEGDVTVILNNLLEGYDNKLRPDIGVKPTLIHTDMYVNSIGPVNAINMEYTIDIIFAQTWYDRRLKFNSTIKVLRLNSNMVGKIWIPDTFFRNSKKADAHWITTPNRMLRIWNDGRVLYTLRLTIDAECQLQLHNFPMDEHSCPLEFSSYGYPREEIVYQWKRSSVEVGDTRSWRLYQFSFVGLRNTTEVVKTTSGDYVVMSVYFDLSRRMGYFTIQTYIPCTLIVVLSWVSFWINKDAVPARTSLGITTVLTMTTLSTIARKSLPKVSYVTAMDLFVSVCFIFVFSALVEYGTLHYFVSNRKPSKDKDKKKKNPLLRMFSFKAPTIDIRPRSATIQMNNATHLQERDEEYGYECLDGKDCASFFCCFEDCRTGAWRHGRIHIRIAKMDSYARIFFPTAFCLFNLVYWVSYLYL

[2] = target: T2, gamma-aminobutyric acid A receptor (GABAAR) γ2 subunit, wild type (mouse (endogenous in liver)) (UniProt P22723); experiment: as above
T2 sequence: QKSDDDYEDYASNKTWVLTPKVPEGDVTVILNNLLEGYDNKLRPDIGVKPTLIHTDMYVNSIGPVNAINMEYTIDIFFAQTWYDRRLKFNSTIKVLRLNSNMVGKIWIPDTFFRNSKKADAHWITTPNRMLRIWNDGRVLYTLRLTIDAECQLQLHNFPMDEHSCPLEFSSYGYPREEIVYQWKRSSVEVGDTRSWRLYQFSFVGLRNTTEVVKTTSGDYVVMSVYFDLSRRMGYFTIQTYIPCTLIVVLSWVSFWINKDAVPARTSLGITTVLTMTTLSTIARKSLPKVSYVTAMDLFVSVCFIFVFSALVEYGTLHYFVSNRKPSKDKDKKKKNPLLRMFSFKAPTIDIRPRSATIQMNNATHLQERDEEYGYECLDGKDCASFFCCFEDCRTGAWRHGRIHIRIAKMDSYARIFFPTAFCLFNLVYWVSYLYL

B1: Acyl-coenzyme-A-binding protein (ACBP) (protein, UniProt P31786 1-87)
chain: MSQAEFDKAAEEVKRLKTQPTDEEMLFIYSHFKQATVGDVNTDRPGLLDLKGKAKWDSWNKLKGTSKESAMKTYVEKVDELKKKYGI
[1]
  binding: no binding
[2]
  binding: binds
